In patent US20210380649A1:
Results are given in words; binding and its absence hold for the method and conditions named. For some of these results: Binding seen in cells or lysates may run through a third protein. Some binding calls cover weakened binding; strength is not graded here. For some of these results: Sequences can lack the tags named with a protein.

Tests used:
[1] = target: T1, mouse Wnt1 (mouse) (UniProt P04426); test: co-immunoprecipitation from CHO conditioned media, Western blot
T1 sequence (looked up): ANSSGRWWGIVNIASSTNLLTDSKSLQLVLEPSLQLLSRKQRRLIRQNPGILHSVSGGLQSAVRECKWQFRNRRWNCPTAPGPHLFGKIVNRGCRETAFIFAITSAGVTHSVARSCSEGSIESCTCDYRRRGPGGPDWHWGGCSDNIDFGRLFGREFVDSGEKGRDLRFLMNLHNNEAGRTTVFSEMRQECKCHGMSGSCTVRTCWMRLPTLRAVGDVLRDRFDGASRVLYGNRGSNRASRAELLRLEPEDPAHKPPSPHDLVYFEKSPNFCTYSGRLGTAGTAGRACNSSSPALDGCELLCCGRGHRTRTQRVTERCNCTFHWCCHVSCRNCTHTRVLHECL

[2] = target: T1, mouse Wnt1 (mouse); test: co-immunoprecipitation from CHO conditioned media (IP anti-Wnt1, blot anti-His; IP anti-His, blot anti-Wnt1), FIG. 2A
[3] = target: T2, recombinant mouse (rm) Wnt3a biotinylated protein (mouse), P27467; test: ELISA: in-solution binding with biotinylated mouse Wnt3a (100 ng/mL), capture on streptavidin plate, detection with mouse anti-His antibody, FIG. 8; conditions: remark: other sources report otherwise
[4] = target: T2, recombinant mouse (rm) Wnt3a …; test: ELISA: in-solution binding with biotinylated mouse Wnt3a (100 ng/mL), capture on streptavidin plate, detection with sheep anti-sFRP4 antibody, FIG. 8; conditions: remark: other sources report otherwise
[5] = target: T3, mouse Wnt2b (mouse) (UniProt O70283); test: co-immunoprecipitation: IP anti-mWnt2b, blot anti-hsFRP1, FIG. 2B
T3 sequence (looked up): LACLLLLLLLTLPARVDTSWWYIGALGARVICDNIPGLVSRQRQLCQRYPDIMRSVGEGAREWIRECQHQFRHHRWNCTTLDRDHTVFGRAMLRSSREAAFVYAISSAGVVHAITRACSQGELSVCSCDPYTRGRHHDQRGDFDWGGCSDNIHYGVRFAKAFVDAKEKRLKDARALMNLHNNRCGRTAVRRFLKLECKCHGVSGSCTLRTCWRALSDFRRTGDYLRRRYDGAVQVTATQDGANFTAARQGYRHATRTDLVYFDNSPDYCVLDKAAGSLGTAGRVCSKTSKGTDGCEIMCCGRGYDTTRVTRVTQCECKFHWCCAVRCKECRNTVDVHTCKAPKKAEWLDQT

[6] = target: T3, mouse Wnt2b (mouse); test: co-immunoprecipitation: IP anti-hsFRP1, blot anti-mWnt2b, FIG. 2C
[7] = target: T3, mouse Wnt2b (mouse); test: co-immunoprecipitation from CHO conditioned media (IP anti-mWnt2b, blot anti-hsFRP1; IP anti-hsFRP1, blot anti-mWnt2b), FIG. 2B and 2C

B1: mouse sFRP1-His (protein, UniProt Q8C4U3 32-314, looked up, not shown: small tags and cut ends)
chain: SEYDYVSFQSDIGSYQSGRFYTKPPQCVDIPVDLRLCHNVGYKKMVLPNLLEHETMAEVKQQASSWVPLLNKNCHMGTQVFLCSLFAPVCLDRPIYPCRWLCEAVRDSCEPVMQFFGFYWPEMLKCDKFPEGDVCIAMTPPNTTEASKPQGTTVCPPCDNELKSEAIIEHLCASEFALRMKIKEVKKENGDKKIVPKKKKPLKLGPIKKKELKRLVLFLKNGADCPCHQLDNLSHNFLIMGRKVKSQYLLTAIHKWDKKNKEFKNFMKRMKNHECPTFQSVFK
[1]
  binding: binds
[2]
  binding: binds

B2: His tagged-mouse sFRP3, P97401 33-323 (protein, UniProt P97401 33-323, looked up, not shown: small tags and cut ends)
chain: AACEPVRIPLCKSLPWNMTKMPNHLHHSTQANAILAMEQFEGLLGTHCSPDLLFFLCAMYAPICTIDFQHEPIKPCKSVCERARQGCEPILIKYRHSWPESLACDELPVYDRGVCISPEAIVTADGADFPMDSSTGHCRGASSERCKCKPVRATQKTYFRNNYNYVIRAKVKEVKMKCHDVTAVVEVKEILKASLVNIPRDTVNLYTTSGCLCPPLTVNEEYVIMGYEDEERSRLLLVEGSIAEKWKDRLGKKVKRWDMKLRHLGLGKTDASDSTQNQKSGRNSNPRPARS
modifications: here or on the partner: biotinylated (sites not given)
[3]
  binding: binds

B3: mouse sFRP4, Q9Z1N6 19-351 (protein, UniProt Q9Z1N6 19-351, looked up)
chain: VRGAPCEAVRIPMCRHMPWNITRMPNHLHHSTQENAILAIEQYEELVDVNCSSVLRFFLCAMYAPICTLEFLHDPIKPCKSVCQRARDDCEPLMKMYNHSWPESLACDELPVYDRGVCISPEAIVTDLPEDVKWIDITPDMMVQERSFDADCKRLSPDRCKCKKVKPTLATYLSKNYSYVIHAKIKAVQRSGCNEVTTVVDVKEIFKSLSPIPRTQVPLITNSSCQCPHILPHQDVLIMCYEWRSRMMLLENCLVEKWRDQLSRRSIQWEERLQEQQRTIQDKKQIASRTSRTSRSNPPKSKGRPPAPKPASPKKNIKARSAPKKSNLKKSAS
modifications: here or on the partner: biotinylated (sites not given)
[4]
  binding: binds

B4: mouse sFRP1 (protein, UniProt Q8C4U3 32-314, looked up)
chain: B1 chain
[5]
  binding: binds
[6]
  binding: binds
[7]
  binding: binds
